The source of these data is patent publication US6149937A, “Liposome encapsulated amphiphilic drug compositions” (priority 1996, dated 2000).

Molecules are shown by their SMILES.

Series [1] is described as follows: Entrapment of MP^0 into MLVs (encapsulation efficiency). In kind it is physicochemical.
The conditions of series [2]: in 1 hr, pH 7.4, 37° C., 2.8 mg entrapped.

In the case of `CN1CC[C@]23c4c5ccc(O)c4O[C@H]2[C@@H](O)C=C[C@H]3[C@H]1C5` [MP^0], in series [1] (EPC/MP^0 20:1, text), the encapsulation efficiency entry is recorded as “about 80%”. Moreover, the association efficiency in series [1] (mole ratio 40 or higher until 100) turned out to be 35%. In addition, the “drug concentration in the PBS medium” value in series [2] is 6000 to 8000 ng/mL.
